Test results: patent US20020132223A1, “Methods for modulating activity of the FXR nuclear receptor” (City of Hope, priority 1999, published 2002)
For at least one compound, name, drawing or mass did not settle the structure. Some entries share one result that the patent states for a list of compounds.

Legend:
FXR-RXR heterodimers [1] = molecular target: T1, FXR-RXR heterodimers (Rattus norvegicus, UniProt Q62735); experiment: Transient transfection activation assay in CV-1 cells, EcRE×6 reporter, FXR + RXR; format: cell-based; conditions: for activation of FXR-RXR: 100 μM, no bile acid transporter
T1 sequence (Q62735 1-469): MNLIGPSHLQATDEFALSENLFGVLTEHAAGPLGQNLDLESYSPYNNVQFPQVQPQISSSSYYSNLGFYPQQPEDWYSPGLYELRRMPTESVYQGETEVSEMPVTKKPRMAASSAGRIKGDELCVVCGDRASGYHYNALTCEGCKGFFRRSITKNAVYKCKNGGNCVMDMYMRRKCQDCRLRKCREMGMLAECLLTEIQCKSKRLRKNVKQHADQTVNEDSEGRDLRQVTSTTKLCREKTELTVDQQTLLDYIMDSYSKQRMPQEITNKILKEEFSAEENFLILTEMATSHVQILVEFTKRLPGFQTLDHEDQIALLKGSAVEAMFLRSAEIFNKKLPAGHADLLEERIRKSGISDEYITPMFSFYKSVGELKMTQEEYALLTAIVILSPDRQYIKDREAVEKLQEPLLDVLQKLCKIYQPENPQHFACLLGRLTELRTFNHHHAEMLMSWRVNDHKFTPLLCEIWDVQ
T1 sequence (P19793 1-462 partner): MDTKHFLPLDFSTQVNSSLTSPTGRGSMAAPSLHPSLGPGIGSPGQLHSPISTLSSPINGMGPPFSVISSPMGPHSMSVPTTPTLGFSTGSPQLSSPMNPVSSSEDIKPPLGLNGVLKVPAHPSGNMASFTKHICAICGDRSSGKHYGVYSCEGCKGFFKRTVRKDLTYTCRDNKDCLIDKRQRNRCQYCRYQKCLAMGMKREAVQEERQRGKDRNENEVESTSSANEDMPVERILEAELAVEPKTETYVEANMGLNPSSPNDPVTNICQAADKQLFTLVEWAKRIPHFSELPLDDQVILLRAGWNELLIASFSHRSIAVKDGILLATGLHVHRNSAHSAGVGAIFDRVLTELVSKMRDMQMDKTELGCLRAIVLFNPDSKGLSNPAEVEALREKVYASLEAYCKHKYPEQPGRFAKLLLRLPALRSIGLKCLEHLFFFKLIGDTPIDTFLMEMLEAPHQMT
Description: Suitable reporter gene constructs are well known to skilled workers in the fields of biochemistry and molecular biology. Reporter/receptor pairs used in the assay reported in FIG. 1 are listed in Table I. All transfections additionally contained CMV-βgal as an internal control. Suitable constructs for use in the these studies may conveniently be cloned into pCMV. pCMV contains the cytomegalovirus promoter/enhancer followed by a bacteriophage T7 promoter for transcription in vitro. Other vectors known in the art can be used in the methods of the present invention.
CV-1 cells for the activation assays were grown in Dulbecco's modified Eagle's medium supplemented with 10% resin charcoal-stripped fetal bovine serum, 50 U/ml penicillin G and 50 μg/ml streptomycin sulfate (DMEM-FBS) at 37° C. in 5% CO2. One day prior to transfection, cells were plated to 50-80% confluence using phenol red free DMEM-FBS.
The cells were transiently transfected by lipofection. Reporter constructs (300 ng/10^5 cells) and cytomegalovirus-driven expression vectors (20-50 ng/10^5 cells) were added, with CMV-β-gal (500 ng/10^5 cells) as an internal control. After 2 hours, the liposomes were removed and the cells were treated for approximately 45 hours with phenol red free DMEM-FBS containing the test bile acid and other compounds.
Any compound which is a candidate for activation of FXR may be tested by this method. […] After exposure to ligand, the cells were harvested and assayed for β-galactosidase activity (control) and activity of the specific reporter gene.
Activity of the reporter gene can be conveniently normalized to the internal control and the data plotted as fold activation relative to untreated cells.
A variety of commercially available bile acids (Sigma) were tested for their ability to activate known FXR-RXR (FIG. 9; left panel) and FXR-RXRm (FIG. 9, right panel).
CV-1 cells were grown in Dulbecco's Modified Eagle's medium supplemented with 10% resin-charcoal stripped fetal bovine serum, 50 U/ml penicillin G and 50 μg/ml streptomycin sulfate (DMEM-FBS) at 37° C. in 5% CO2. […]

[2] = tested on: endogenous bile acid sensor; conditions: literature; cited from earlier work
FXR-RXR heterodimers [3] = molecular target: T2, FXR-RXR heterodimers (Rattus norvegicus, UniProt Q62735); experiment: In vitro coactivator recruitment assay (mobility shift), FXR + RXR, GST-GRIP1; format: biochemical
T2 sequence (Q62735 1-469): T1 sequence (Q62735 1-469)
T2 sequence (P19793 1-462 partner): T1 sequence (P19793 1-462 partner)
T2 sequence (Q61026 625-765 partner limits assumed): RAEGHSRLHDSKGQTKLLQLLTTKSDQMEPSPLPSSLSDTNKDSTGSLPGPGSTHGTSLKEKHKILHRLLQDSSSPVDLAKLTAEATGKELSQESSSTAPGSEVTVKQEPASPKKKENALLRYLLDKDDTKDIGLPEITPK

FXR + RXRm = molecular target: T3, FXR + RXRm (Rattus norvegicus, UniProt Q62735); experiment: In vitro coactivator recruitment assay (mobility shift), FXR + RXRm, GST-GRIP1; format: biochemical
T3 sequence (Q62735 1-469): T1 sequence (Q62735 1-469)
T3 sequence (Q61026 625-765 partner): T2 sequence (Q61026 625-765 partner limits assumed)

[4] = molecular target: T4, GAL-L-FXR along with the RXR LBD (L-RXR) (Rattus norvegicus, UniProt Q62735)
T4 sequence (Q62735 181-469): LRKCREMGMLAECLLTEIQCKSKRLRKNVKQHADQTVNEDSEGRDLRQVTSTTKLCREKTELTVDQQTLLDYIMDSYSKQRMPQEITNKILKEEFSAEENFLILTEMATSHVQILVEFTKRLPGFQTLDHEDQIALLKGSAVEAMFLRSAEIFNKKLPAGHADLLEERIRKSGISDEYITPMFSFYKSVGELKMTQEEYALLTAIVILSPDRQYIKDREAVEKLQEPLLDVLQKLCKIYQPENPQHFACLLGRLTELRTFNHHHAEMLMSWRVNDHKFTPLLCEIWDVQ
T4 sequence (P19793 203-462 partner limits assumed): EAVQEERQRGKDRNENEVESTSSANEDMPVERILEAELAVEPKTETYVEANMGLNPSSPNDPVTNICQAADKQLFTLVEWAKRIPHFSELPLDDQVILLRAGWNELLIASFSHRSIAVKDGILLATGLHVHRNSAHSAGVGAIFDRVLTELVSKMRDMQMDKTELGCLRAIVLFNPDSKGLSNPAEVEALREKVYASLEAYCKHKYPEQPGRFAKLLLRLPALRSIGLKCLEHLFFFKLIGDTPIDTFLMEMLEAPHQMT

GAL-L-FXR = molecular target: T5, GAL-L-FXR (Rattus norvegicus, UniProt Q62735)
T5 sequence (Q62735 181-469): T4 sequence (Q62735 181-469)

GAL-CoA and VP-L-FXR = molecular target: T6, GAL-CoA and VP-L-FXR (Rattus norvegicus, UniProt Q62735); conditions: 100 μM, without RXR LBD
T6 sequence (Q62735 181-469): T4 sequence (Q62735 181-469)

[5] = molecular target: T7, GAL-CoA, VP-L-FXR and RXR LBD (Rattus norvegicus, UniProt Q62735); conditions: 100 μM, in the presence of RXR LBD
T7 sequence (Q62735 181-469): T4 sequence (Q62735 181-469)
T7 sequence (P19793 203-462 partner limits assumed): T4 sequence (P19793 203-462 partner limits assumed)
T7 sequence (Q15788 617-769 partner limits assumed): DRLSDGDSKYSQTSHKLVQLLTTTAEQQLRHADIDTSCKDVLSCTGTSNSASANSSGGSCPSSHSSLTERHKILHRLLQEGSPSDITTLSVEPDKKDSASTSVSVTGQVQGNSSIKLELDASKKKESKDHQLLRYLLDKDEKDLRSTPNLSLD

Row | SMILES | activation of FXR-RXR (FXR-RXR heterodimers [1]) [fold] | concentrations at which transcriptional effects occur [2] [µM] | time to observed activity after addition to cells (FXR-RXR heterodimers [1]; time course, data not shown) [h] | coactivator recruitment by FXR-RXR (FXR-RXR heterodimers [3]) | coactivator recruitment by FXR-RXRm (FXR + RXRm) | responsiveness of GAL-L-FXR + L-RXR complex [4] | activation in cells expressing only one LBD (GAL-L-FXR) | functional interaction between GAL-CoA and VP-L-FXR (GAL-CoA and VP-L-FXR) | increase in activity [5]
1 | C[C@H](CCC(=O)O)[C@H]1CC[C@H]2[C@@H]3CC[C@@H]4C[C@H](O)CC[C@]4(C)[C@H]3C[C@H](O)[C@]12C [DCA, deoxycholic acid] | 246 | 50 to 250 |  |  |  |  |  |  | 
2 | C[C@H](CCC(=O)O)[C@H]1CC[C@H]2[C@@H]3[C@H](O)C[C@@H]4C[C@H](O)CC[C@]4(C)[C@H]3CC[C@]12C [CDCA, chenodeoxycholic acid] |  | 50 to 250 |  |  |  |  |  |  | 
3 | C[C@H](CCC(=O)O)[C@H]1CC[C@H]2[C@@H]3CC[C@@H]4C[C@H](O)CC[C@]4(C)[C@H]3CC[C@]12C [LCA, lithocholic acid] | 106 |  | ≤ 1 | shifted the majority of the heterodimer into a complex with the coactivator GRIP1 | recruited coactivator | responsive | not activated | Neither CDCA nor LCA were able to promote a functional interaction | 4-7 fold
